# Test results as given in publication PMC11191083 (ACS Omega, 2024).
# Tested on: E. coli MG1655 + pBGS18 + CTX-M-14
# Test: MIC broth microdilution, ampicillin with or without inhibitor
# Assay type: cell-based
# Details: Escherichia coli, MG1655, read-out: MIC of ampicillin without an inhibitor
compound,measurement,value
"CC1(C)S[C@@H]2[C@H](NC(=O)[C@H](N)c3ccccc3)C(=O)N2[C@H]1C(=O)O [AMP, ampicillin, reference compound]",MIC,1020 µg/mL
